From publication PMC6656915
No constants are given. Whether binding was seen depends on the method and setting. For some of these results: A result given as binding can be weak or reduced; the word gives no strength. For some of these results: Tags and fused reporters may be left off the sequences shown.

Amino acid sequences for entries named in this document (tags omitted). A change or cut given only in a name is not applied to a line headed by its entry. Residues count along the entry.
UniProt P9WJV5: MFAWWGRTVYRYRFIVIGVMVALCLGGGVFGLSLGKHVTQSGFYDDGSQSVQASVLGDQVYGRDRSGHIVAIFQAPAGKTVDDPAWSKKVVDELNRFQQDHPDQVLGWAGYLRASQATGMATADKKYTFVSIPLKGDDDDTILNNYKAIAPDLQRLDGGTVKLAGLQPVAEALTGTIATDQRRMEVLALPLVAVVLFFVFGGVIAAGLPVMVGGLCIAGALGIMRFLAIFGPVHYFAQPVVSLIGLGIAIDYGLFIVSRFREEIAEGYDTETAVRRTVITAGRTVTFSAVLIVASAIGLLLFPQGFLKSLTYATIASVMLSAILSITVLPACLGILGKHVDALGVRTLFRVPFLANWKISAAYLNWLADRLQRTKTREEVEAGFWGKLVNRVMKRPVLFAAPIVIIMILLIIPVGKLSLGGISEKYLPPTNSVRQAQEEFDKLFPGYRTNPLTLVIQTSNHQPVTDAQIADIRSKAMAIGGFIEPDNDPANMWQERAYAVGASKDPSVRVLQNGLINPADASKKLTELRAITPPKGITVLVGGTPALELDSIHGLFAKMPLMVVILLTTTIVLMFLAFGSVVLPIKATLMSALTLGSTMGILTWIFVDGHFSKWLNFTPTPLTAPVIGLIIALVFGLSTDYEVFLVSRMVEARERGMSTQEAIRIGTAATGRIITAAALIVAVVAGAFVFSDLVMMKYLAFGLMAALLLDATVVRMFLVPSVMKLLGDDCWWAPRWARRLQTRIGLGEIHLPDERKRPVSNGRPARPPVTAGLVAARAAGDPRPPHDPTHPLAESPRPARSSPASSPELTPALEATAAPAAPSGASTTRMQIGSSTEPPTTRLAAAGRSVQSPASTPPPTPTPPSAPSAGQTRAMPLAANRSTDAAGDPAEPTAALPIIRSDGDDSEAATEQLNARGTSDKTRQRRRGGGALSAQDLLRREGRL
MmpL3tb^1–744, T18/T25 fusion: residues 1-744 of P9WJV5
UniProt P9WJK3: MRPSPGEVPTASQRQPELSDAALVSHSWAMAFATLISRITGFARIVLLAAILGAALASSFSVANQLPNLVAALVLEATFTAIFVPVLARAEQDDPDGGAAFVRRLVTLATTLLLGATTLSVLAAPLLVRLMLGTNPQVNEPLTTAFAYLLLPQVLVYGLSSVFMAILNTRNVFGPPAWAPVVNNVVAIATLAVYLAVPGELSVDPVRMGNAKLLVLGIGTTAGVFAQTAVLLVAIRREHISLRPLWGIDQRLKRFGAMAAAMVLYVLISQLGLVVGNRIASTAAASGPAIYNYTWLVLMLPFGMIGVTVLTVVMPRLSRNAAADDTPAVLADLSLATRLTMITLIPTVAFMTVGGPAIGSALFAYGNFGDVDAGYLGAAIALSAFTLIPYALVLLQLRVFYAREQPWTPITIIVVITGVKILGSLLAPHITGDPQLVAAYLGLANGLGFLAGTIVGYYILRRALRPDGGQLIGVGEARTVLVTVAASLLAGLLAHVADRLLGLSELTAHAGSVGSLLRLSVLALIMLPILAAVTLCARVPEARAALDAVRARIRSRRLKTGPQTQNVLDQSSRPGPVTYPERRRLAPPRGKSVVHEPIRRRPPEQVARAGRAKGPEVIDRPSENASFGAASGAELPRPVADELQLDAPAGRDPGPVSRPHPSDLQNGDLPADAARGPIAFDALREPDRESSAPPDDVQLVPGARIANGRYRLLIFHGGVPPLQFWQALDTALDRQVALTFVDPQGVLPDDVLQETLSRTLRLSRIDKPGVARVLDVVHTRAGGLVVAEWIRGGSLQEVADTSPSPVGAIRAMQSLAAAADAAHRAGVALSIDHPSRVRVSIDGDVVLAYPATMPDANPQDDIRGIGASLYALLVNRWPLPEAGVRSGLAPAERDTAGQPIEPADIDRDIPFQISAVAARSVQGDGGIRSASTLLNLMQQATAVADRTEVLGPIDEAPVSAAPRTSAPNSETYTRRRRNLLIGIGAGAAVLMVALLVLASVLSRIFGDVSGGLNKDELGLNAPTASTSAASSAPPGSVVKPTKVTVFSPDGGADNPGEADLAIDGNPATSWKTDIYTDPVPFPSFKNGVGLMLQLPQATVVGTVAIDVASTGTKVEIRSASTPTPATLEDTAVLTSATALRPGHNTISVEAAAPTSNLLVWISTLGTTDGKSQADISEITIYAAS

What was measured:
[1] = target: MmpL3 protein from M. tuberculosis, C-terminally hexahistidine-tagged, devoid of gfp fusion (M. tuberculosis) (UniProt P9WJV5); test: SPR; MmpL3 immobilised on CM5 chip; analytes injected at two-fold increasing concentrations from 0.6 µM up to 10 µM, 10 µL/min for 30 sec, dissociation 180 sec, 25 °C; 20 mM HEPES pH 7.4, 150 mM NaCl, 0.2% Triton X-100 (0.03% DDM instead for AftD); global fit to the 1:1 Langmuir binding model; both purified
[2] = target: MmpL3 (full-size), T18/T25 fusion (M. tuberculosis) (UniProt P9WJV5); test: two-hybrid
[3] = target: MmpL3tb^1–744, T18/T25 fusion (M. tuberculosis) (UniProt P9WJV5); test: two-hybrid
[4] = target: T1, Rv0227c, T18/T25 fusion (M. tuberculosis) (UniProt P96409); test: two-hybrid
T1 sequence: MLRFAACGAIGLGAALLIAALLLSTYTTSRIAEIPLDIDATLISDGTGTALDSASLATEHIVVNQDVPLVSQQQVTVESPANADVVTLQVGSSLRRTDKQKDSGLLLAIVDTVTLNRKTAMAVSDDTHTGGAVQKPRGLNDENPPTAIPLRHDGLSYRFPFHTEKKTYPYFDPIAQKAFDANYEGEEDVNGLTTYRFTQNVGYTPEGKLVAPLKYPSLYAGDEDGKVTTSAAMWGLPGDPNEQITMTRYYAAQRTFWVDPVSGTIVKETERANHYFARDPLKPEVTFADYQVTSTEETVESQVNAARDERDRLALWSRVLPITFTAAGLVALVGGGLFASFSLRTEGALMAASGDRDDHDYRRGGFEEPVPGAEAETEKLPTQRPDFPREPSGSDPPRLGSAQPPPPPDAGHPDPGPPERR

His-tagged MviN (from UniProt P9WJK3)
binding [1]: no binding (tested: 10 µM)

TmaT, T18/T25 fusion (from UniProt P96410)
binding [2]: binds
binding [3]: binds
binding [4]: binds
